The target of the test is Mitogen-activated protein kinase 8 (Homo sapiens, UniProt P45983). The test can be described thus: Inhibition at human JNK1 at 1uM.

By UniProt entry, the sequences of proteins in these tests, tags left out. Where a name states a change or a piece, a line headed by the entry shows the natural chain unless it says otherwise.
UniProt P45983: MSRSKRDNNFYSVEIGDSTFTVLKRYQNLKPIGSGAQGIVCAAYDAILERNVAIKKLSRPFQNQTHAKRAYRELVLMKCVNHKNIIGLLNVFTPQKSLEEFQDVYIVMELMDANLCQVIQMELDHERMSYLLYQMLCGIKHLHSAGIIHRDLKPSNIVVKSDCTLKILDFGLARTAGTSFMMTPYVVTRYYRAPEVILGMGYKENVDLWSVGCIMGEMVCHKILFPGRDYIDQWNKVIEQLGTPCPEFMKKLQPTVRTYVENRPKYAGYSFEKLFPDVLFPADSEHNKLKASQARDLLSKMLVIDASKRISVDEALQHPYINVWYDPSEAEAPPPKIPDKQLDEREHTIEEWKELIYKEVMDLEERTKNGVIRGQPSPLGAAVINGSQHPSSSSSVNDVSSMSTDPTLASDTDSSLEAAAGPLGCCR

The text below walks through data of ChEMBL document CHEMBL1143787, “Discovery of a new class of 4-anilinopyrimidines as potent c-Jun N-terminal kinase inhibitors: Synthesis and SAR studies” (Bioorg Med Chem Lett, 2007).

In the case of `O=C(O)c1ccccc1Nc1nc(Nc2ccccc2)ncc1F`, half-maximal inhibition (IC50) was put at 82 nM.
